Measured values published in paper PMC11260460, “A Plasmodium apicoplast-targeted unique exonuclease/FEN exhibits interspecies functional differences attributable to an insertion that alters DNA-binding”.
Results are given in words; binding and its absence hold for the method and conditions named. Binding can be weak; no strength is given.

Chains of the proteins cited; added tags and fusions are not shown. Lines headed by an entry give the natural chain unless they say otherwise; changes in a name come on top.
UniProt Q8ILY1: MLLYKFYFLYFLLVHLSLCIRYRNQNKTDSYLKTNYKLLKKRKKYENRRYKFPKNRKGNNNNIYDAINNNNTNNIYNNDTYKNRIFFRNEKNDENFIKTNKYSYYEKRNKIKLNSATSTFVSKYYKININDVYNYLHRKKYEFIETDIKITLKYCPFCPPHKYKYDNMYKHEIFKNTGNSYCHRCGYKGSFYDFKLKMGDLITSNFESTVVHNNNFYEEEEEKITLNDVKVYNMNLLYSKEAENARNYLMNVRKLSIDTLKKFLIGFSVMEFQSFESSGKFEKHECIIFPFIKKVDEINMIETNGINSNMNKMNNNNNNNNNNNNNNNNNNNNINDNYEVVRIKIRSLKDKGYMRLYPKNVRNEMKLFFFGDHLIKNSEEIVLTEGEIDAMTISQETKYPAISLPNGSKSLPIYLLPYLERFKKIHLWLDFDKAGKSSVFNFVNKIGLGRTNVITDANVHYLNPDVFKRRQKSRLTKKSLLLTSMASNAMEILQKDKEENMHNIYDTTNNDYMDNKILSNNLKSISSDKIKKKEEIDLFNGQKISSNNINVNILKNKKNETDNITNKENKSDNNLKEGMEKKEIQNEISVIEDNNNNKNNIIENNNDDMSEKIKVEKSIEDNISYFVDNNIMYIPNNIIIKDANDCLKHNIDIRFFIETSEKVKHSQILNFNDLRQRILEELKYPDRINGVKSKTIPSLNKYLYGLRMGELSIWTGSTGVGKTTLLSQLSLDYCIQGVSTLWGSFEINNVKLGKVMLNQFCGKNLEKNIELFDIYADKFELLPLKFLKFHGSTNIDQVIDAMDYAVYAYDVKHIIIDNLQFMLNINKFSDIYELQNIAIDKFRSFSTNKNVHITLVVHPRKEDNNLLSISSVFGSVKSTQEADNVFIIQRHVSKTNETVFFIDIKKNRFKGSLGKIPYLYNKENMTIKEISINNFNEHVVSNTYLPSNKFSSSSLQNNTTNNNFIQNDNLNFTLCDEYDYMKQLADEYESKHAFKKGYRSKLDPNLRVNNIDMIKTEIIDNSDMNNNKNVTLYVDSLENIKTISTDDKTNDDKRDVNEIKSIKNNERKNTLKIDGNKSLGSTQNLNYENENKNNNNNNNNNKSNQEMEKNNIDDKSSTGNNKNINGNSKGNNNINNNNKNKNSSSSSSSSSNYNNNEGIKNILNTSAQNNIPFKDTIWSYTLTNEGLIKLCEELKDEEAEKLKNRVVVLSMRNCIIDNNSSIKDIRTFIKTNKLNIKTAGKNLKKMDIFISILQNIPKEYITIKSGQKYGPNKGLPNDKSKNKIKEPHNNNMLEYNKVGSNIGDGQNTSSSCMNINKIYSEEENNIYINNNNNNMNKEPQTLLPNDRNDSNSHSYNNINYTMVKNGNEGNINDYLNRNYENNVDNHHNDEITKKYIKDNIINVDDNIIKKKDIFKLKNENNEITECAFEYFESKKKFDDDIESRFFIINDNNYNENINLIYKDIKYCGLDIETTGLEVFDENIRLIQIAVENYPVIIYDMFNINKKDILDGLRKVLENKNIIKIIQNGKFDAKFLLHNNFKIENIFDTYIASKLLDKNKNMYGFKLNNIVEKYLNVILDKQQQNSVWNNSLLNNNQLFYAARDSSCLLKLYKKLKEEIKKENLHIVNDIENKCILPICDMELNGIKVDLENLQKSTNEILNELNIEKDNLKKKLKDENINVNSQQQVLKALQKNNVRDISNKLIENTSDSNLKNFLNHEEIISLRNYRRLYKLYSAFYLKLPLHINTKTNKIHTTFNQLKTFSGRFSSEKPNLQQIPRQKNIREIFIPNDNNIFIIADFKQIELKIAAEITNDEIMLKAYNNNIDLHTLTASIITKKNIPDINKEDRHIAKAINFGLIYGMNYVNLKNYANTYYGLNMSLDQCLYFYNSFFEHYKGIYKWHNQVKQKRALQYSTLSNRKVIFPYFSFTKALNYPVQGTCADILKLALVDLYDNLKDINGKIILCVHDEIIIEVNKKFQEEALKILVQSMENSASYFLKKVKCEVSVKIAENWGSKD

Molecular target: N-terminal glutathione S-transferase (GST)-tagged PfExo (91-577 amino acids) (P. falciparum 3D7) (UniProt O96139)
Assay: pull-down; 30 μg GST-PfExo or GST bound to glutathione agarose beads as bait; 30 μg purified PfPrex Exo/Pol added in 1 ml binding buffer (50 mM Tris-HCl pH 8.0, 150 mM NaCl, 1 mM EDTA), overnight at 4°C; eluted with 50 mM reduced glutathione; western blot with anti-6XHis and anti-GST; both purified

Substance: Recombinant PfPrex Exo/Pol domain (residues 1360-2016), C-terminal 6XHis (from UniProt Q8ILY1) (domain or fragment)
- binding: binds
